Several values for one entry are separate records, joined by “and”; a condition that tells them apart may be missing. Identical values can stand only once. Out of some 300,000 compounds screened, about 3,700 (1.2%) were called active. The shares of active, inactive and inconclusive entries below differ from those in the screen. Calls follow the shape of the full dose curve; tested in HEK293 cells. Where the call is inconclusive, the potency comes from a doubtful curve fit.
Assay: qHTS for Inhibitors of binding or entry into cells for Lassa Virus; also: nearly all actives have a fitted effect of over 50% in size
Conditions: Lassa virus pseudotype entry inhibition, cell reporter; activity change, negative = inhibition: at 37.9 µM (top of the series) unless noted
% is scaled to controls: 0 for no effect and ±100 for the full control effect; potency is read from the fitted curve at half-maximal effect.

Row | SMILES | activity change, negative = inhibition | Potency
1 | CCOC(=O)c1cc(C)n(Cc2cccc(OC)c2OC)c1C | inactive: -13.8% | 
2 | CCOC(=O)Cn1c(-c2cccs2)cc2cc(Cl)ccc21 |  | inconclusive: 0.562 µM [inhibitor, full curve, poor fit]
3 | CC(C)c1cnc2c(c1SCC(=O)Nc1ccc(C(N)=O)cc1)c(=O)n(C)c(=O)n2C |  | inconclusive: 4.47 µM [inhibitor, single point]
4 | c1ccc(CN2CCN(C(c3ccccc3)c3ccccc3)CC2)cc1 |  | inconclusive: 17.8 µM [inhibitor, single point]
5 | O=C(C1CCN(C2CC(=O)N(c3cccc(Cl)c3)C2=O)CC1)N1CCCC1 (stereo not given) | inactive: 13.9% | 
6 | CCCCN(Cc1ccco1)S(=O)(=O)c1ccc(-c2ccc(=O)[nH]n2)s1 |  | inconclusive: 11.2 µM [inhibitor, partial curve]
7 | COc1ccc(C(C)=O)cc1COC(=O)c1ccc2ccccc2n1 | inactive: 3.47% | 
8 | CC/C(=N\NC(=O)CSCc1ccccc1Cl)c1ccc2c(c1)OCCO2 |  | inconclusive: 35.5 µM [inhibitor, partial curve, poor fit]
9 | CC(=O)Nc1ccc(OCC(=O)c2cc(C)ccc2C)cc1 |  | inconclusive: 11.2 µM [inhibitor, partial curve, poor fit]
10 | CCN(C(=O)c1cn(C)c(=O)c2ccccc12)c1cccc(C)c1 |  | inconclusive: 1.12 µM [inhibitor, full curve, poor fit]
11 | O=S(=O)(c1cnc(Cl)c(Br)c1)N1CCc2ccccc21 | inactive: 2.32% | 
12 | COc1cc2ccccc2cc1C(=O)NCC(c1cccs1)N(C)C (stereo not given) |  | inconclusive: 35.5 µM [inhibitor, single point]
13 | COc1ccc(CCC(=O)OCC(=O)N2CCN(S(=O)(=O)c3ccc(C)cc3C)CC2)cc1 |  | inconclusive: 35.5 µM [activator, partial curve, poor fit]
14 | O=C(Cn1c(=O)ccc2cc(S(=O)(=O)N3CCCC3)ccc21)Nc1ccc(Cl)cc1 | inactive: -27.1% [at 46.1 µM] | 
15 | CCCCn1c(SCc2ncc(-c3ccccc3)o2)nc2cc(S(N)(=O)=O)ccc21 |  | inconclusive: 9.2 µM [inhibitor, partial curve, poor fit]
16 | Cc1ccn2cc(C(=O)Nc3ccc4c(c3)OCCO4)nc2c1 |  | inconclusive: 25.9 µM [inhibitor, single point]
17 | COc1ccc(OC(=O)C(C)N2C(=O)c3ccccc3C2=O)cc1 (stereo not given) |  | inconclusive: 22.4 µM [inhibitor, single point]
18 | Cc1ccc(-c2nn3c(C)nnc3s2)cc1NCc1c(F)cccc1Cl |  | inconclusive: 23.1 µM [inhibitor, single point]
19 | c1ccc(CN2CCc3nc4ccccc4cc3C2)cc1 |  | inconclusive: 11.2 µM [inhibitor, partial curve]
20 | CCOC(=O)N1CCC(N2Cc3cccc(C(=O)Nc4ccc(F)cc4)c3C2=O)CC1 | inactive: -2.24% | 
21 | C=CCn1cc(C(=O)NCCOC)c(=O)c2cc(S(=O)(=O)N(CC)CC)ccc21 |  | active: 11.6 µM
22 | O=C(c1cc2cc(Br)ccc2oc1=O)N1CCN(c2ccccn2)CC1 | inactive: -11.9% [at 14.3 µM] | 
23 | Cc1c(CC(=O)N2CCN(C(=O)C3COc4ccccc4O3)CC2)c(=O)oc2c(O)c(O)ccc12 (stereo not given) |  | inconclusive: 31.6 µM [inhibitor, single point]

Row | SMILES | activity change, negative = inhibition | Potency
24 | CCOc1ccc(CCNC(=O)c2ccc(-c3nc(CSc4ccccc4)c(C)o3)cc2)cc1 | inactive: 6.38% [at 46.1 µM] | 
25 | Cc1cccc(CC(=O)NCCc2sc3nc(-c4ccc(F)cc4)nn3c2C)c1 | inactive: 11.1% [at 46.1 µM] | 
26 | CCC(C)NC(=O)CSCc1nc(-c2ccc(C)cc2)oc1C (stereo not given) |  | inconclusive: 3.55 µM [activator, single point]
27 | O=C(c1ccccc1Br)N(Cc1ccccc1F)C1CCS(=O)(=O)C1 (stereo not given) | inactive: 9% [at 46.1 µM] | 
28 | C(=N\Nc1nncc2ccccc12)/c1ccccn1 |  | active: 1.12 µM
29 | CC(=O)c1cccc(N=c2scc(-c3ccc(S(=O)(=O)N4CCOCC4)cc3)n2CCO)c1 |  | inconclusive: 7.31 µM [inhibitor, partial curve]
30 | CCCC(=O)Nc1ccc(NC(=O)c2ccccn2)cn1 |  | inconclusive: 15.8 µM [inhibitor, single point]
31 | CCOC(=O)Cc1csc(NC(=O)c2sc3nc4c(C)cc(C)cc4cc3c2N)n1 | inactive: 6.19% | 
32 | O=C(/C=C/c1ccco1)NC(=S)Nc1cc(-c2nc3ccccc3s2)ccc1Cl | inactive: -23.2% | 
33 | COc1cccc(/C=N/NC(=O)c2c(-c3ccccc3)noc2C)c1O |  | active: 10 µM
34 | Cc1ccc(NC(=O)CSc2nccc(=O)[nH]2)c(S(=O)(=O)N2CCOCC2)c1 | inactive: -3.96% | 
35 | COc1ccc(NC(=O)CSc2ncc3c(n2)-c2ccccc2N(C)S3(=O)=O)cc1Cl | inactive: -13.6% [at 46.1 µM] | 
36 | COc1ccccc1NC(=O)COC(=O)c1ccccc1C(=O)N1CCN(c2ccccc2)CC1 |  | inconclusive: 35.5 µM [inhibitor, single point]
37 | Cc1ccc(S(=O)(=O)N(C)c2c(C)ccc(S(=O)(=O)NC(C)(C)C)c2C)cc1 |  | inconclusive: 35.5 µM [inhibitor, partial curve, poor fit]
38 | CCN(CC1COc2ccccc2O1)C(=S)Nc1ccccc1 (stereo not given) | inactive: -3.46% | 
39 | O=C(COC(=O)C1=COCCO1)Nc1ccccc1 |  | inconclusive: 8.91 µM [activator, single point]
40 | CCOc1ccc(-c2cc(C(=O)N/N=C/c3ccc(O)cc3)c3ccccc3n2)cc1 |  | active: 1.41 µM
41 | C/C(=N/NC(=O)c1ccoc1C)c1ccc(N2CCOCC2)cc1 |  | inconclusive: 1.58 µM [activator, full curve]
42 | CCOC(=O)c1ccc(NC(=O)CN2C(=O)c3cccnc3Sc3ccccc32)cc1 | inactive: -19.3% [at 46.1 µM] | 
43 | COc1ccc(Nc2ncc(C(=O)N3CCN(c4ccccc4OC)CC3)c3ccccc23)cc1 |  | inconclusive: 16.4 µM [inhibitor, single point] and inconclusive: 35.5 µM [inhibitor, single point]
44 | CCOc1ccc(C(=O)NCCc2sc(-c3ccc(F)cc3)nc2C)cc1 |  | inconclusive: 8.91 µM [inhibitor, partial curve, poor fit]
45 | Cc1ccccc1NC(=S)N(Cc1cccnc1)Cc1ccco1 | inactive: 3.2% | 

Reference: PubChem BioAssay AID540256 (National Center for Advancing Translational Sciences (NCATS), 2011)
